Experimental data taken from paper doi:10.1101/2022.09.10.507391.
Results are given in words; binding and its absence hold for the method and conditions named. Binding seen in cells or lysates may run through a third protein. These calls come from enrichment with a bait or labelling near it, and not all partners need be listed.

The chains behind the UniProt entries cited, without tags or fusion partners. Where a name states a change or a piece, a line headed by the entry shows the natural chain unless it says otherwise.
UniProt A0A0H3C9I3: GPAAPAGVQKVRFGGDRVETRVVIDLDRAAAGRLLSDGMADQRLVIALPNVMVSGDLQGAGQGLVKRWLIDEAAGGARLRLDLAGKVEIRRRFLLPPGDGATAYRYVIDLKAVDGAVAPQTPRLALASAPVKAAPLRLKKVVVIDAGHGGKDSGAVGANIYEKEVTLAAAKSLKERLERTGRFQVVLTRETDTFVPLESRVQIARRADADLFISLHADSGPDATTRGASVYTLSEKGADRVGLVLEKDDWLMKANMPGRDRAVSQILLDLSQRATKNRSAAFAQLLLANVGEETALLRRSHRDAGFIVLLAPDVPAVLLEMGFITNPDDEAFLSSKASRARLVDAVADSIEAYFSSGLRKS
UniProt B8GX61: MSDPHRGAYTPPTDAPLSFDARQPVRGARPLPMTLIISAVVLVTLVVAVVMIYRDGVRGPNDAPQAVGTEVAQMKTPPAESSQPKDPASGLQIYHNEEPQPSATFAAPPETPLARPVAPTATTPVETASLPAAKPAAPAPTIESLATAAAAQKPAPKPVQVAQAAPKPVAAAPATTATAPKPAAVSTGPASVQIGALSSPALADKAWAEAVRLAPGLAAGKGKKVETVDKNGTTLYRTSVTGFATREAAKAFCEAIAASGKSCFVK

Each substance was assayed against DipM-FLAG (C. crescentus) (assay: affinity purification with mass spectrometry).

binding	Substance
binds	AmiC (from UniProt A0A0H3C9I3) (enzyme)
binds	FtsN (from UniProt B8GX61)
binds	SdpA (from UniProt A0A0H3C7P1) (enzyme)
